# Hit rate of the full screen: of about 300,000 compounds, about 5,400 (1.8%) were called active. Inconclusive means that the source gave no clear call. Such entries were picked first, then a sample of the others. Calls follow the shape of the full dose curve; tested in HEK293 cells. Potencies beside an inconclusive call are fits to weak or partial responses and may not hold up.
# Test: qHTS for inhibitors of binding or entry into cells for Marburg Virus
# Settings: Marburg virus pseudotyped entry inhibition, cell reporter; series mostly up to 37.8 µM
# Potency is read from the fitted curve at half-maximal effect.
row,Structure (SMILES),Potency
1,COC(=O)Nc1cc(C(F)(F)F)ccc1N1CCN(c2ccccc2)CC1,"inconclusive: 1.03 µM [inhibitor, full curve, poor fit]"
2,CC(=O)N(CC(=O)Nc1nn(-c2ccccc2)nc1C(N)=O)Cc1ccccc1,inactive
3,CN(C)/C=C/C(=O)/C=C/c1cn(-c2ncc(C(F)(F)F)cc2Cl)c2ccccc12,"inconclusive: 35.5 µM [inhibitor, single point]"
4,O=C(Nc1ccc(NC(=O)C2CC2)cn1)c1ccccc1Cl,"inconclusive: 35.5 µM [inhibitor, single point]"
5,COc1ccc(OC)c(Nc2nc(-c3cccc([N+](=O)[O-])c3)nc3ccccc23)c1,inactive
6,COC(=O)c1cc2sccc2n1Cc1nc(-c2cccc(Cl)c2)oc1C,inactive
7,C=C1CCC[C@]2(C)C[C@H]3OC(=O)C(CN[C@@H](C)c4ccccc4)[C@H]3CC12 (stereo partly specified),"inconclusive: 17.8 µM [inhibitor, partial curve, poor fit]"
8,Cc1cc(NC(=O)CCC(=O)N(c2cccc(F)c2)C(C(=O)NC2CCCC2)c2ccncc2)no1 (stereo unspecified),"inconclusive: 14.1 µM [inhibitor, partial curve, poor fit]"
9,Cc1ccccc1C(=O)Nc1ccc(N2CCCCCC2)cc1,"inconclusive: 7.08 µM [inhibitor, partial curve, poor fit]"
10,CCN1CCN(CC(O)COc2ccc(C)c(C)c2)CC1 (stereo unspecified),"inconclusive: 6.31 µM [activator, single point]"
11,CC(=O)N1c2ccccc2Oc2cc3ccccc3cc21,"inconclusive: 10.3 µM [activator, partial curve, poor fit]"
12,C=CCNC(=S)N/N=C(\C)c1ccc(OC)cc1,inactive
13,CCC(=O)Nc1ccc(N2CCCCC2)c(C(=O)Nc2ccc(OC)cc2)c1,"inconclusive: 3.98 µM [inhibitor, partial curve, poor fit]"
14,CCC1CCc2[nH]nc(C(=O)O)c2C1 (stereo unspecified),inactive
15,Cc1nnc(-c2ccc(Oc3ccc(C)c(C)c3)c([N+](=O)[O-])c2)o1,"inconclusive: 10 µM [inhibitor, single point]"
16,COc1ccc(OC)c(C=Nc2ccccc2-c2nc3ccccc3[nH]2)c1,inactive
17,CCOc1ccccc1CNC(=O)c1ccc2nc(N3CCC(C)CC3)sc2c1,"inconclusive: 22.4 µM [activator, single point]"
18,O=C(Nc1ccc(S(=O)(=O)NCc2ccco2)cc1)c1ccncc1,inactive
19,Cc1ccccc1Nc1c(-c2ccc(N3CCOCC3)cc2)nc2cccc(C)n12,"inconclusive: 3.16 µM [activator, single point]"
20,CCC(C)Nc1nc2c(c(=O)[nH]c(=O)n2C)n1Cc1ccc(F)cc1 (stereo unspecified),inactive
21,Cc1ccc(NC(=O)c2cc(S(=O)(=O)c3ccccc3)ccc2Cl)cc1,"inconclusive: 20 µM [inhibitor, single point]"
22,Cc1cccc(-c2noc(CCCC(=O)NCC3CCCO3)n2)c1 (stereo unspecified),inactive
23,CC(C)=CCN1CCN(Cc2ccc(C)s2)CC1CCO (stereo unspecified),inactive

# Shown bar-delimited: entries from further up.
row | Structure (SMILES) | Potency
6 | COC(=O)c1cc2sccc2n1Cc1nc(-c2cccc(Cl)c2)oc1C | inactive
7 | C=C1CCC[C@]2(C)C[C@H]3OC(=O)C(CN[C@@H](C)c4ccccc4)[C@H]3CC12 (stereo partly specified) | inconclusive: 17.8 µM [inhibitor, partial curve, poor fit]
11 | CC(=O)N1c2ccccc2Oc2cc3ccccc3cc21 | inconclusive: 10.3 µM [activator, partial curve, poor fit]

# More records

row,Structure (SMILES),Potency
1,CCCc1nnc(NC(=O)CCC(=O)N2CCN(CCOC(c3ccccc3)c3ccccc3)CC2)s1,"inconclusive: 3.16 µM [activator, single point]"
2,CCC(C(=O)NNC(=O)c1cnccn1)c1ccccc1 (stereo unspecified),"inconclusive: 3.98 µM [inhibitor, partial curve, poor fit]"
3,CCCC(=O)C1=C(O)C(C(=O)OC)C(C)(C)CC1=NCCc1ccccc1 (stereo unspecified),"inconclusive: 22.4 µM [inhibitor, partial curve, poor fit]"
4,Cc1ccc(OCCSc2nnc(-c3cccs3)n2C)cc1,"inconclusive: 20.6 µM [inhibitor, single point]"
5,CCOC(=O)c1cn2nc(SCc3ccccc3)nc2nc1C,inactive
6,COc1ccc(-c2csc(NC(=O)C3CC(=O)N(c4ccc5c(c4)OCCO5)C3)n2)cc1 (stereo unspecified),"inconclusive: 20 µM [inhibitor, single point]"
7,CCC(C)c1ccccc1N=Cc1ccc2c(c1)OCO2 (stereo unspecified),inactive
8,Cc1sc(NC(=O)CCCCC(=O)Nc2sc(C)c(C)c2C(=O)O)c(C(=O)O)c1C,"inconclusive: 35.5 µM [activator, single point]"
9,O=C(NCCc1ccc(Cl)cc1)c1ccc(Nc2nc3ccccc3n3nnnc23)cc1,"inconclusive: 8.91 µM [inhibitor, partial curve, poor fit]"
10,O=C(Nc1nc2ccccc2n1CCOc1ccccc1)c1ccco1,"inconclusive: 35.5 µM [inhibitor, single point]"
11,CCCCC(=O)N/C(N)=N/c1nc2ccccc2o1,"inconclusive: 1.26 µM [activator, partial curve, poor fit]"
12,COc1ccc(CNCc2ccc(C(=O)O)s2)cc1,inactive
13,CC(=O)c1ccc2c(c1)C1C(Cl)C(Sc3ccccc3[N+](=O)[O-])CC1C(C(=O)O)N2 (stereo unspecified),inactive
14,CCN1CCN(C(=O)CNC(=O)c2nn(-c3ccc(OC)cc3)c(=O)c3ccccc23)CC1,inactive
15,C/C(=N\NC(=O)Cc1ccc(Cl)cc1)c1ccccn1,active: 3.26 µM
16,CCCCN(CC)c1nc(N)c2c(N)nc(OCC)cc2c1C#N,"inconclusive: 3.66 µM [inhibitor, full curve]"
17,COc1ccccc1C(=O)Nc1nnc(SCC(=O)NC2CCCC2)s1,active: 11.2 µM
18,CCOC(=O)c1cnc(SCCc2ccccc2)nc1N,inactive
19,COc1ccc2[nH]c(=O)c(CNc3ccccc3C)cc2c1,"inconclusive: 32.6 µM [inhibitor, single point]"
20,O=c1nc2ccccc2c2n1CC(CN1CCN(Cc3ccccc3)CC1)N2 (stereo unspecified),"inconclusive: 2 µM [inhibitor, partial curve]"
21,CCN1CCN(C(=O)CSc2cc(=O)n(CC)c3ccccc23)CC1,"inconclusive: 35.5 µM [inhibitor, single point]"
22,CC1CCC(C(C)C)C(OC(=O)COC(=O)c2ccccc2N)C1 (stereo unspecified),inactive
23,CN(C)c1ccc(-[n+]2c(-c3ccccc3)cc(-c3ccccc3)cc2-c2ccccc2)cc1,"inconclusive: 0.562 µM [inhibitor, full curve, poor fit]"

# From PubChem BioAssay AID540276 (National Center for Advancing Translational Sciences (NCATS), 2011)
